# In all, about 390,000 compounds went through this assay and about 4,000 (1%) were called active. The source calls these results inconclusive, neither active nor inactive. Calls come from the whole dose curve; as a rule, active = well fitted inhibition curve with a large enough effect; inconclusive = small, poorly fitted or top-dose-only effect, or another doubt; inactive = no such curve, though single readings can be large or run the other way.
# Chains of the proteins cited; added tags and fusions are not shown.
# UniProt Q9UNA4, whole entry: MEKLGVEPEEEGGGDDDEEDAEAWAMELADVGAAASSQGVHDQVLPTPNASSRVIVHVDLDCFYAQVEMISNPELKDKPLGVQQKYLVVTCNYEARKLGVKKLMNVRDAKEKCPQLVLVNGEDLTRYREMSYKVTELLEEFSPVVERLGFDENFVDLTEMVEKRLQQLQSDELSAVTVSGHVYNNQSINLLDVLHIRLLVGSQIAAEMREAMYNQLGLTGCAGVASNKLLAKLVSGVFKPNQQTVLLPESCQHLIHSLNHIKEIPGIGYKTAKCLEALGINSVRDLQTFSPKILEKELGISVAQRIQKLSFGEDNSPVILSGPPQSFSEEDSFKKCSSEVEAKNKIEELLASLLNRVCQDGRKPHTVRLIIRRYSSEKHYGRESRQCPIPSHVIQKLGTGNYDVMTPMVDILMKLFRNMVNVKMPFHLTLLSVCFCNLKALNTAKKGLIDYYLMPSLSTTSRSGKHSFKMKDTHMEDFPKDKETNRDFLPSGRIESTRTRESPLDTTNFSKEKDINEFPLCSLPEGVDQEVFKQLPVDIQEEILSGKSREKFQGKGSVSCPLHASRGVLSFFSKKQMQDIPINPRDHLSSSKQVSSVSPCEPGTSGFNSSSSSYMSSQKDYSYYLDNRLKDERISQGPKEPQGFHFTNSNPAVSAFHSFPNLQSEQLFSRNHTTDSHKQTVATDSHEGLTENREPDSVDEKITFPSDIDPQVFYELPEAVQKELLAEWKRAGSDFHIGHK
# Target: DNA polymerase iota (Homo sapiens) (UniProt Q9UNA4)
# Test: qHTS for Inhibitors of Polymerase Iota
# Conditions: Pol iota fluorescent replication assay, 10 min
# Potency is the fitted concentration of half-maximal effect.
row,SMILES,Potency
1,CCC(=O)N(c1ccccc1)C1(COC)CCN(CCc2cccs2)CC1,inconclusive: 89.1 µM

# Reference: PubChem BioAssay AID588590 (National Center for Advancing Translational Sciences (NCATS), 2011)
